No constants are given. Whether binding was seen depends on the method and setting. Binding seen in cells or lysates may run through a third protein. Binding calls can cover weak binding; strength is not graded here.
Biological target: ERBB4 (endogenous, primary mouse cardiomyocytes) (mouse (endogenous in primary neonatal cardiomyocytes)) (UniProt Q61527)
Assay: proximity ligation

Amino acid sequences for entries named in this document (tags omitted). A change or cut given only in a name is not applied to a line headed by its entry.
UniProt Q61527: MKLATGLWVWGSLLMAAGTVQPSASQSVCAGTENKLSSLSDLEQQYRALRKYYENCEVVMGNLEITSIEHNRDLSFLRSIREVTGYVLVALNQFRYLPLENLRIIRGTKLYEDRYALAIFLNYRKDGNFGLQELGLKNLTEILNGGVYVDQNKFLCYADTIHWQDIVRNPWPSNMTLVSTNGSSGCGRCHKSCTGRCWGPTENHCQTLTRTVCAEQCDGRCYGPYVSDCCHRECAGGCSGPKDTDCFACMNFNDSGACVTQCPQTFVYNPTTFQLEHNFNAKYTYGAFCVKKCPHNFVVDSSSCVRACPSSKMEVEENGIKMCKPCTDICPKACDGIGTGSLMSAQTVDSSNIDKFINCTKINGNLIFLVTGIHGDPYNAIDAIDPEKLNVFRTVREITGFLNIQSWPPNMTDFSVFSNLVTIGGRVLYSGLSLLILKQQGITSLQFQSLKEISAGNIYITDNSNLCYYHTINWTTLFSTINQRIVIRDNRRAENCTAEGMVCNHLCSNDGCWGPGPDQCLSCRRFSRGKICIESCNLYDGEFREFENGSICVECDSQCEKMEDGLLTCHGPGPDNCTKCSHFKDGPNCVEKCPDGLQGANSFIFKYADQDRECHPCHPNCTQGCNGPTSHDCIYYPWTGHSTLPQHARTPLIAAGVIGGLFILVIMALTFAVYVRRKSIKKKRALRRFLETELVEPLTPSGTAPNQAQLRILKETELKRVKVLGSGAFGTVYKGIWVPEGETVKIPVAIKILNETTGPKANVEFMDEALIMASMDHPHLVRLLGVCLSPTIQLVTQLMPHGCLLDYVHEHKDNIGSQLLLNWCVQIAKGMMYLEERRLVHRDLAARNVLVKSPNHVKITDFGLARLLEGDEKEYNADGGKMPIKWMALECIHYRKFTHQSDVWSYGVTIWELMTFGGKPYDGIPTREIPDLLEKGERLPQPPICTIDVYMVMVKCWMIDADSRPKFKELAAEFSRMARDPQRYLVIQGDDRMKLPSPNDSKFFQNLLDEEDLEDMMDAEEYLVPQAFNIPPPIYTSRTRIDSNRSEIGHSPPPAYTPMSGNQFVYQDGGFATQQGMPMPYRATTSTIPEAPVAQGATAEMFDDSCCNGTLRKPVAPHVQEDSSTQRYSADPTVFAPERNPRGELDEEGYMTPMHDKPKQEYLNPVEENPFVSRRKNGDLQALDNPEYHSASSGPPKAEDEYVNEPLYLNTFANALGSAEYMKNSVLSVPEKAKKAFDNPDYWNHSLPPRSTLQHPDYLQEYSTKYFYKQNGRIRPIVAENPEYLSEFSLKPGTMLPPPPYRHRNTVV

binding: binds
B1: dynamin-2 (endogenous, primary mouse cardiomyocytes) (protein, UniProt P39054 1-870)
chain: MGNRGMEELIPLVNKLQDAFSSIGQSCHLDLPQIAVVGGQSAGKSSVLENFVGRDFLPRGSGIVTRRPLILQLIFSKTEYAEFLHCKSKKFTDFDEVRQEIEAETDRVTGTNKGISPVPINLRVYSPHVLNLTLIDLPGITKVPVGDQPPDIEYQIKDMILQFISRESSLILAVTPANMDLANSDALKLAKEVDPQGLRTIGVITKLDLMDEGTDARDVLENKLLPLRRGYIGVVNRSQKDIEGKKDIRAALAAERKFFLSHPAYRHMADRMGTPHLQKTLNQQLTNHIRESLPTLRSKLQSQLLSLEKEVEEYKNFRPDDPTRKTKALLQMVQQFGVDFEKRIEGSGDQVDTLELSGGARINRIFHERFPFELVKMEFDEKDLRREISYAIKNIHGVRTGLFTPDLAFEAIVKKQVVKLKEPCLKCVDLVIQELISTVRQCTSKLSSYPRLREETERIVTTYIREREGRTKDQILLLIDIEQSYINTNHEDFIGFANAQQRSTQLNKKRAIPNQGEILVIRRGWLTINNISLMKGGSKEYWFVLTAESLSWYKDEEEKEKKYMLPLDNLKIRDVEKGFMSNKHVFAIFNTEQRNVYKDLRQIELACDSQEDVDSWKASFLRAGVYPEKDQAENEDGAQENTFSMDPQLERQVETIRNLVDSYVAIINKSIRDLMPKTIMHLMINNTKAFIHHELLAYLYSSADQSSLMEESAEQAQRRDDMLRMYHALKEALNIIGDISTSTVSTPVPPPVDDTWLQNTSGHSPTPQRRPVSSVHPPGRPPAVRGPTPGPPLIPMPVGATSSFSAPPIPSRPGPQSVFANNDPFSAPPQIPSRPARIPPGIPPGVPSRRAPAAPSRPTIIRPAEPSLLD
